Our source for the AC50 values is PubChem BioAssay AID1487 (National Center for Advancing Translational Sciences (NCATS), 2009).

The assay is described as follows: qHTS Assay for Modulators of Lamin A Splicing. To be noted: HeLa LMNA splicing GFP/RFP minigene ratio, 48 h. The gist of the method:
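S3 HeLa cells stably expressing lamin A-EGFP splicing minigene plus DsRed2, 600 cells/well, 48 h compound exposure at 37C. Laser-scanning cytometry; analysed as GFP (500-530 nm)/RFP (575-640 nm) total intensity ratio; 0.5% DMSO vehicle.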
For orientation: In qHTS, concentration-response curves come from the screen itself.

The mark [1] stands for this setting: measured here: GFP splicing reporter channel.
[2] abbreviates: measured here: RFP viability control channel.

Each structure is given as a SMILES string. The list shows a part of the results. These are further read-outs of the screen, such as a control signal, another cell line or another target. No call is given for them. The list favours compounds with an active or inconclusive main result. Words in brackets tell the shape of the fitted curve; partial curves, single points and poor fits give uncertain potencies.

Broadly, the AC50 is the concentration at which the activity in the assay is half-maximal. As to `Cc1cc2ncn(-c3ncnc4sc5c(c34)CCC(C)C5)c2cc1C` (stereo not given), the half-maximal activity concentration (AC50) is, setting by setting: under setting [1], 25.1 µM [falling, single point]; under setting [2], 12.6 µM [falling, partial curve].

`C[C@]12C=CC(=O)C=C1CC[C@@H]1[C@@H]2[C@@H](O)C[C@@]2(C)[C@H]1CC[C@]2(O)C(=O)COC(=O)CCC(=O)O`: the AC50 under setting [1] is 0.0891 µM [rising, full curve, poor fit] and the AC50 under setting [2] was 20 µM [rising, partial curve].

With `Cc1ccc(C2CN(C)C3(C(=O)Nc4ccccc43)C23COc2ccccc2C3=O)cc1` (stereo not given), the half-maximal activity concentration (AC50) under setting [1] is 35.5 µM [falling, single point] and the AC50 under setting [2] was 35.5 µM [falling, single point].

Take `COC(=O)[C@@H]1[C@H]2C[C@H]3c4[nH]c5ccccc5c4CCN3C[C@@H]2CC[C@@H]1O`: under setting [1], the AC50 is 0.02 µM [falling, full curve, poor fit].

`Cc1cc(C)cc(Nc2nc(-c3ccc(S(=O)(=O)N4CCCC4)cc3)cs2)c1`: the half-maximal activity concentration (AC50) under setting [2] was 12.6 µM [rising, partial curve, poor fit].

Turning to `Cc1ccc(OCC(=O)Nc2ccc(Cl)c(-c3nc4ncccc4o3)c2)c(C)c1`, the AC50 is, setting by setting: under setting [1], 3.98 µM [falling, partial curve, poor fit]; under setting [2], 2.51 µM [falling, partial curve, poor fit].

As to `O=C(CSc1ncccc1-c1nc2ccccc2[nH]1)N1CCN(c2ccccc2F)CC1`, the concentration at half-maximal activity (AC50) is, setting by setting: under setting [1], 25.1 µM [rising, single point]; under setting [2], 35.5 µM [rising, single point].

Regarding `COc1ccc(N(C(=O)c2ccccc2)S(=O)(=O)c2cccs2)cc1`, the half-maximal activity concentration (AC50) under setting [1] was 11.2 µM [falling, partial curve].

In the case of `CC(C)(C)c1ccc(CN2CCN([C@H](c3ccccc3)c3ccc(Cl)cc3)CC2)cc1`, the concentration at half-maximal activity (AC50) reads like this: under setting [1], 0.00631 µM [falling, full curve, poor fit]; under setting [2], 14.1 µM [rising, partial curve].

On to `CC(C)(C)c1ccc(OCC(=O)Nc2ccc(S(=O)(=O)Nc3ncccn3)cc2)cc1`, for which, under setting [2], the AC50 is 0.562 µM [falling, full curve, poor fit].

In the case of `O=C1Nc2ccc(Cl)cc2C(C#CC2CC2)(C(F)(F)F)O1` (stereo not given), under setting [1], the AC50 was 5.62 µM [rising, partial curve, poor fit].

With `COc1ccc(CCNC(=O)CCCCCNc2nc(=S)[nH]c3ccccc23)cc1OC`, the half-maximal activity concentration (AC50) under setting [2] is 28.2 µM [rising, single point].

Regarding `O=C1NC2(CCCCC2)C(=O)N1CCN1C(=O)c2ccccc2C1=O`, the AC50 under setting [2] was 0.0398 µM [falling, full curve].

On to `CN(C(=O)COc1nnc(-c2cccs2)c(-c2cccs2)n1)c1ccccc1`, for which, under setting [1], the AC50 is 14.1 µM [rising, single point].

Consider `O=C(Nc1ccccc1)Nc1ccc(F)c([N+](=O)[O-])c1`, for which the AC50 by setting is: under setting [1], 17.8 µM [rising, single point]; under setting [2], 35.5 µM [rising, single point].

In the case of `CCOC(=O)c1c(NC(=O)CSc2nnc(-c3c[nH]c4ccccc34)n2CC)sc2c1CCCC2`, the AC50 is, setting by setting: under setting [1], 14.1 µM [rising, partial curve]; under setting [2], 14.1 µM [rising, partial curve].

On to `Cc1nn(C)c2c1c(-c1ccccc1)cc(=O)n2CC(=O)Nc1ccccc1C(F)(F)F`, for which the AC50 under setting [1] is 0.251 µM [rising, full curve, poor fit].

On to `Cc1ccc(OCC(=O)Nc2ccc3nc(SCC(=O)N4CCOCC4)sc3c2)cc1`, for which the half-maximal activity concentration (AC50) under setting [1] is 8.91 µM [falling, partial curve, poor fit].

Regarding `O=C(Nc1ncc(Cc2ccc(C(F)(F)F)cc2)s1)c1ccc(-c2cccc([N+](=O)[O-])c2)o1`, the AC50 is 3.55 µM [rising, full curve] under setting [1] and 6.31 µM [rising, partial curve] under setting [2].

Turning to `COc1ccc(C2=NOC(C(=O)NCc3ccco3)C2)cc1OC` (stereo not given), the AC50 was 8.91 µM [falling, partial curve] under setting [1] and 8.91 µM [falling, partial curve] under setting [2].

`COc1ccc(OC)c(-c2csc(NC(=O)C3c4ccccc4Oc4ccccc43)n2)c1`: the concentration at half-maximal activity (AC50) was 7.94 µM [falling, partial curve, poor fit] under setting [1] and 15.8 µM [falling, partial curve, poor fit] under setting [2].

In the case of `Cc1cccc(OCc2nnc(SCC(=O)c3ccccc3)o2)c1`, the AC50 under setting [1] is 22.4 µM [rising, single point].

As to `COc1ccc(Nc2ccc(S(=O)(=O)N3CCCCCC3)cc2[N+](=O)[O-])cc1`, the AC50 by setting is: under setting [1], 7.94 µM [rising, partial curve]; under setting [2], 11.2 µM [rising, partial curve].

`Cc1ccc(C)c(S(=O)(=O)N2CCN(CC(=O)Nc3ccc([N+](=O)[O-])cc3)CC2)c1`: the AC50 by setting is: under setting [1], 11.2 µM [rising, partial curve, poor fit]; under setting [2], 22.4 µM [rising, partial curve].

For the molecule `O=C1/C(=C/c2ccncc2)SC(=S)N1C1CCS(=O)(=O)C1` (stereo not given), the AC50 by setting is: under setting [1], 31.6 µM [falling, single point]; under setting [2], 25.1 µM [falling, single point].

In the case of `CCOC(=O)c1cccc(NS(=O)(=O)c2ccc(-c3cnc(C4CC4)o3)cc2)c1`, the AC50 is, setting by setting: under setting [1], 7.94 µM [rising, partial curve]; under setting [2], 1.78 µM [rising, full curve].

Take `COc1ccc(S(=O)(=O)N2N=C(C)Oc3ccccc3C2=O)cc1`: the half-maximal activity concentration (AC50) reads like this: under setting [1], 7.08 µM [falling, full curve]; under setting [2], 7.08 µM [falling, full curve].

Take `Cc1cccn2c(=O)c(C=O)c(Sc3ncccn3)nc12`: under setting [2], the half-maximal activity concentration (AC50) is 15.8 µM [rising, single point].

Turning to `O=c1oc2cc(Br)ccc2n1CSC1=NCCS1`, the concentration at half-maximal activity (AC50) by setting is: under setting [1], 31.6 µM [rising, single point]; under setting [2], 15.8 µM [rising, single point].

`Cc1nnc(NC(=O)CSc2nnc(C)n2-c2ccc(F)cc2)s1`: the AC50 under setting [2] was 12.6 µM [rising, partial curve].

On to `S=C(NCCc1ccccn1)Nc1ccc(Cl)c(Cl)c1`, for which the AC50 under setting [2] was 14.1 µM [rising, single point].

Take `CC(C)(C)NC(=O)c1ccc2c(c1)CCO2`: the half-maximal activity concentration (AC50) under setting [1] is 0.158 µM [rising, full curve, poor fit].

Take `CCOc1ccc(NC(=O)c2ncoc2-c2ccco2)cc1`: the AC50 under setting [1] is 35.5 µM [falling, partial curve, poor fit] and the half-maximal activity concentration (AC50) under setting [2] was 35.5 µM [falling, partial curve, poor fit].

For the molecule `COc1ccc(C2(C(=O)NCc3ccccc3Cl)CCOCC2)cc1OC`, the AC50 under setting [1] was 0.00501 µM [rising, full curve, poor fit].

Take `CN(C)c1ccc(NC2=C(Cl)C(=O)c3ccccc3C2=O)cc1`: the concentration at half-maximal activity (AC50) was 35.5 µM [falling, single point] under setting [1] and 35.5 µM [falling, single point] under setting [2].

Take `Cc1cc[n+](C2=C([O-])c3ccccc3C(=O)/C2=N\S(=O)(=O)c2cccs2)cc1C`: under setting [1], the AC50 was 35.5 µM [falling, single point].

Regarding `CCn1ncc(/C=C2/SC(=S)NC2=O)c1C`, the half-maximal activity concentration (AC50) under setting [1] was 7.08 µM [rising, partial curve, poor fit].

With `O=C(Cn1cc(C(=O)c2ccco2)c2ccccc21)NC1CCCC1`, the concentration at half-maximal activity (AC50) under setting [2] was 15.8 µM [rising, partial curve, poor fit].

For `COc1cccc(CNC(=O)c2ccc(-n3c(C)cc4c3CCC(C)C4)cc2)c1` (stereo not given), under setting [2], the AC50 was 11.2 µM [rising, single point].

For the molecule `C=CCn1c(=O)c(C(=O)OCC)c(O)c2ccccc21`, the concentration at half-maximal activity (AC50) under setting [2] is 0.447 µM [falling, full curve, poor fit].

Turning to `N#Cc1cccc(-c2ccc3ncnc(NCc4ccccc4)c3c2)c1`, the concentration at half-maximal activity (AC50) by setting is: under setting [1], 12.6 µM [falling, partial curve]; under setting [2], 15.8 µM [falling, partial curve].

For `CCN(CC(=O)NC(C)(C)C)Cc1nc2c(Br)cc(Br)cc2c(=O)[nH]1`, the AC50 under setting [1] is 0.0398 µM [rising, full curve, poor fit].

Turning to `C=CCN(Cc1cn(C)nc1-c1cccc(Cl)c1)C1CCS(=O)(=O)C1` (stereo not given), the AC50 under setting [2] is 0.0447 µM [falling, full curve, poor fit].

Consider `CCOc1cc(/C=C2\C(=O)N(Cc3ccco3)C(C)=C2C(=O)OC)ccc1O`, for which the half-maximal activity concentration (AC50) under setting [1] was 35.5 µM [falling, single point] and the AC50 under setting [2] was 35.5 µM [falling, single point].

As for `N#C/C(=C1\CCCN1)c1nc2ccccc2c(=O)[nH]1`, the AC50 under setting [2] is 14.1 µM [rising, single point].

In the case of `COc1ccc(Cc2c(O)nc(SCC(=O)NC34CC5CC(CC(C5)C3)C4)[nH]c2=O)cc1`, the AC50 is 35.5 µM [rising, single point] under setting [1] and 14.1 µM [rising, partial curve, poor fit] under setting [2].

Take `COC(=O)c1ccc(C(=O)OC)c(NC(=S)N2CCN(c3ccc(F)cc3)CC2)c1`: the concentration at half-maximal activity (AC50) was 17.8 µM [rising, single point] under setting [1] and 0.891 µM [falling, single point] under setting [2].

As to `CCn1c(=O)c(C(=O)NCc2ccc(OC)c(OC)c2)c(O)c2ccccc21`, the AC50 under setting [2] is 17.8 µM [rising, single point].

As to `CSCCOC(=O)c1[nH]c2c(c1C)C(=O)CC(c1ccco1)C2` (stereo not given), under setting [2], the AC50 was 2.51 µM [rising, full curve].

As to `COc1cccc(-c2nn(C)c3sc(C(=O)N4CCN(c5ccccn5)CC4)cc23)c1`, under setting [1], the AC50 was 22.4 µM [falling, single point].

As for `COc1ccccc1NS(=O)(=O)c1ccc(NN=C2CCCC2)c([N+](=O)[O-])c1`, under setting [2], the AC50 is 1.58 µM [rising, partial curve].

As to `NC(=O)c1ccc(NC(=O)COC(=O)C2(c3ccccc3F)CCCC2)cc1`, the concentration at half-maximal activity (AC50) under setting [1] is 10 µM [falling, partial curve].
